Where “and” joins values, the source holds several entries; their conditions need not be identical. Identical values can stand only once. The name of at least one read-out is uncertain.
Tested on: NFκB induction (SEAP) in Ramos-blue cells
Experiment: NFkB activation in Ramos-Blue cells for additional TLR7 agonists (Example 31)
Assay type: cell-based
Settings: versus nontreated background
Procedure: A 3× serial dilution was performed in 10% DMSO in PBS for each payload to have a final range of concentration from 1000 uM to 76 nM. Ramos-blue cells (InvivoGen, cat #rms-sp) were cultured using high glucose DMEM media supplied with 10% fetal bovine serum according to the manufacturer guidelines. The media was supplemented with 50 U/mL penicillin, 50 ug/mL streptomycin, and 100 ug/mL normocin to prevent bacterial contamination. The cell density and viability were calculated using a Countess Cell Counter and the proper volume of cells was removed in order to have a seeding density of 0.2×10^6 cells/mL per well. 135 uL of the cell suspension was added to each well in a 96-well plate along with 15 uL of the corresponding payload treatment. Each assay point was run in triplicate and the plate was incubated at 37° C. with 5% CO2 for 24 or 72 hours. In order to assess the NFκB induction, the QUANTI-Blue™ solution was prepared by adding 200 uL of QB reagent (InVivogen cat #rep-qbs) and 200 uL of QB buffer to 19.6 mL of water. The resulting solution was vortexed and incubated at room temperature for ten minutes. […] The plate was read using the Molecular Devices i3x plate reader at a wavelength of 630 nm to determine the amount of SEAP production. […]

SMILES | Fold increase in SEAP signal at lowest active concentration
CCCCc1nc2c(N)nc3ccccc3c2n1Cc1ccc(NC(=O)CCCN)cc1 [20h, 4-amino-N-(4-((4-amino-2-butyl-1H-imidazo[4,5-c]quinolin-1-yl)methyl)phenyl)butanamide] | 3.232 and 2.086
CCCCc1nc2c(N)nc3ccccc3c2n1Cc1ccc(NC(=O)CNC(=O)OC(C)(C)C)cc1 [20a, tert-butyl(2-((4-((4-amino-2-butyl-1H-imidazo[4,5-c]quinolin-1-yl)methyl)phenyl)amino)-2-oxoethyl)carbamate] | 3.012 and 3.227
